Laboratory results: paper PMC10863919
These are yes or no findings as the source states them, for the method shown. In cells and extracts the contact can be indirect. Binding calls can cover weak binding; strength is not graded here.

By UniProt entry, the sequences of proteins in these tests, tags left out. Where a name states a change or a piece, a line headed by the entry shows the natural chain unless it says otherwise.
UniProt O95197: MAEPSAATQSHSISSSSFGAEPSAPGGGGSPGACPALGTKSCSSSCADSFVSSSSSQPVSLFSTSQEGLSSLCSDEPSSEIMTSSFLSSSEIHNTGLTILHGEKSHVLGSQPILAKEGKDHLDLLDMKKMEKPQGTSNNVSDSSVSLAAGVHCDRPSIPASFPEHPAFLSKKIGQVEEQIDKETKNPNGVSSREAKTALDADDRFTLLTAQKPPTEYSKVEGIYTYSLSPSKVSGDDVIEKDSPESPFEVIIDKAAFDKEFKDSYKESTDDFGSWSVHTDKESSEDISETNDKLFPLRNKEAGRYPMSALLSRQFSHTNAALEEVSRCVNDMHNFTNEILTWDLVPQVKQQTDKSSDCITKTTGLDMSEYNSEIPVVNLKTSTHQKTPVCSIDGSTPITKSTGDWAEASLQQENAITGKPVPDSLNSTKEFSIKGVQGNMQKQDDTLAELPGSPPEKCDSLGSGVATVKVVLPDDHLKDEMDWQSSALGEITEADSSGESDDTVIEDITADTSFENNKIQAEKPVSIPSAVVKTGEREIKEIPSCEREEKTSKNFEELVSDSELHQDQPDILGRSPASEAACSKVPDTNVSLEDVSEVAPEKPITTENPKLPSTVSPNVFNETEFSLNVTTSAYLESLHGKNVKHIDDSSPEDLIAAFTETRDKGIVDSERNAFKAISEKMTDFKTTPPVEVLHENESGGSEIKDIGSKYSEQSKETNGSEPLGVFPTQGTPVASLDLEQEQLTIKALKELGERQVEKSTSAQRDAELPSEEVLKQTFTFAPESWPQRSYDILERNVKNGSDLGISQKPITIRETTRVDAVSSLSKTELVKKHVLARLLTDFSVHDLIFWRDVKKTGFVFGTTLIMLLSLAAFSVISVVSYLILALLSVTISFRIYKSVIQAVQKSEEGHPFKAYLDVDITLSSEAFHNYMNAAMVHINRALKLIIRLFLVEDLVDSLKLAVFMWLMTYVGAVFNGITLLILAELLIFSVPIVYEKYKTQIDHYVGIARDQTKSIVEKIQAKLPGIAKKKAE

Biological target: Reticulon 3 (RTN3), expressed in HUVECs (human) (UniProt O95197)
Assay: co-IP; HUVECs, plasmids transfected for 48 h; lysate; anti-myc or anti-flag magnetic beads (Beyotime); performed as in ref. 12

B1: Ceramide synthase 1 (CERS1) in HUVECs (enzyme, UniProt P27544 1-350)
chain: MAAAGPAAGPTGPEPMPSYAQLVQRGWGSALAAARGCTDCGWGLARRGLAEHAHLAPPELLLLALGALGWTALRSAATARLFRPLAKRCCLQPRDAAKMPESAWKFLFYLGSWSYSAYLLFGTDYPFFHDPPSVFYDWTPGMAVPRDIAAAYLLQGSFYGHSIYATLYMDTWRKDSVVMLLHHVVTLILIVSSYAFRYHNVGILVLFLHDISDVQLEFTKLNIYFKSRGGSYHRLHALAADLGCLSFGFSWFWFRLYWFPLKVLYATSHCSLRTVPDIPFYFFFNALLLLLTLMNLYWFLYIVAFAAKVLTGQVHELKDLREYDTAEAQSLKPSKAEKPLRNGLVKDKRF
In the case of B1, the binding is reported as “binds”.
